No constants are given. Whether binding was seen depends on the method and setting. In cells and extracts the contact can be indirect. A yes stands for co-enrichment or nearness to the bait. Other partners may have been found.
Target: ArdC mutant E229A (plasmid R388 (IncW))
Test: affinity purification with mass spectrometry; purified ArdC E229A used to co-purify proteins from P. putida KT2440 cell lysate by pull-down; the co-eluted band was cut from the gel and identified by mass spectrometry (trypsin, MASCOT); only the target purified

- binding: binds
B1: PP_0941 (protein, UniProt Q88PA9 1-173)
chain: MVDSNDDAFDGEKSKTQIKRELHALVELGERLTTLKADTLARLPLTDELRKALAEASKHTAHGARKRHMSFVGKLMRVQDLDAIHALLEQMDSSTRQYNERFHSLERWRDRLIDGNDEDLERFVNEYPDTDRQQLRSLVRHAQHEKARNKPPAAARKVFKYIRDLDELQRGLR
